PubChem BioAssay AID652272, Drosophila RNAi Screening Center, 2013

Screen: 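Finding fly genes that regulate Hedgehog signal transduction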 (primary screen)
System: Drosophila clone 8 (Cl8) cells
Knock-down reagent: long dsRNA against Drosophila genes
Read-out: 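Firefly light from a Hedgehog-responsive ptc promoter reporter and Renilla reference light, both read on a plate reader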
Reading the numbers: firefly Hh reporter signal: higher = more ptc reporter light; Renilla reference signal: higher = more Renilla control light
Rule for the call: 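Called a hit if the two-replicate mean z-score lies below -2 or above +3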
Calls: active = hit: reporter lowered or raised; inactive = not a hit
The deposit covers about 21,000 reagents; shown is an unselected part of those with a known target gene and a result. Of all reagents, 503 (2.4%) got an active call. 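Raw plate light values, not normalised; calls rest on replicate z-scores that were not deposited; hits include reporter decreases as well as increases.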 A number with no mark means an inactive call. Names joined by + are all predicted targets of the reagent. No sequences are given here. Not given: the amount of reagent, the time to read-out.

CG13856 [SID104194498] | firefly Hh reporter signal, replicate 1 = 1.02e6; firefly Hh reporter signal, replicate 2 = 1.97e5; Renilla reference signal, replicate 1 = 51352; Renilla reference signal, replicate 2 = 4834
bocks [SID104196281] | firefly Hh reporter signal, replicate 1 = 1.53e5; firefly Hh reporter signal, replicate 2 = 1.17e5; Renilla reference signal, replicate 1 = 6784; Renilla reference signal, replicate 2 = 5315
CG14610 + asRNA:CR42738 [SID104192346] | firefly Hh reporter signal, replicate 1 = 60692; firefly Hh reporter signal, replicate 2 = 98099; Renilla reference signal, replicate 1 = 2493; Renilla reference signal, replicate 2 = 2916
Rab32 [SID104184938] | firefly Hh reporter signal, replicate 1 = 1.05e5; firefly Hh reporter signal, replicate 2 = 2.28e5; Renilla reference signal, replicate 1 = 2841; Renilla reference signal, replicate 2 = 9364
Rab32 [SID104187314] | firefly Hh reporter signal, replicate 1 = 73190; firefly Hh reporter signal, replicate 2 = 62517; Renilla reference signal, replicate 1 = 3504; Renilla reference signal, replicate 2 = 1866

Laid out differently: results already given
predicted target,PubChem SID,"firefly Hh reporter signal, replicate 1","firefly Hh reporter signal, replicate 2","firefly Hh reporter signal, replicate 3","Renilla reference signal, replicate 1","Renilla reference signal, replicate 2"
bocks,SID104196281,1.53e5,1.17e5,,6784,5315
CG14610 + asRNA:CR42738,SID104192346,60692,98099,,2493,2916

Continued:
CG8757 [SID104190831] | firefly Hh reporter signal, replicate 1 = 53250; firefly Hh reporter signal, replicate 2 = 34512; firefly Hh reporter signal, replicate 3 = 41322; Renilla reference signal, replicate 1 = 3509; Renilla reference signal, replicate 2 = 2872
oys [SID104184995] | firefly Hh reporter signal, replicate 1 = 61738; firefly Hh reporter signal, replicate 2 = 1.33e5; Renilla reference signal, replicate 1 = 1665; Renilla reference signal, replicate 2 = 6506
oys [SID104186543] | firefly Hh reporter signal, replicate 1 = 72388; firefly Hh reporter signal, replicate 2 = 53914; Renilla reference signal, replicate 1 = 2794; Renilla reference signal, replicate 2 = 2001
CG43342 [SID104193353] | firefly Hh reporter signal, replicate 1 = 65216; firefly Hh reporter signal, replicate 2 = 1.65e5; Renilla reference signal, replicate 1 = 13505; Renilla reference signal, replicate 2 = 3623
GstE4 [SID104186466] | firefly Hh reporter signal, replicate 1 = 97752; firefly Hh reporter signal, replicate 2 = 40756; Renilla reference signal, replicate 1 = 2955; Renilla reference signal, replicate 2 = 3201
CG6276 [SID104195799] | firefly Hh reporter signal, replicate 1 = 82644; firefly Hh reporter signal, replicate 2 = 60928; Renilla reference signal, replicate 1 = 3105; Renilla reference signal, replicate 2 = 2880
CG3594 [SID104184185] | firefly Hh reporter signal, replicate 1 = 1.62e5; firefly Hh reporter signal, replicate 2 = 72209; Renilla reference signal, replicate 1 = 6250; Renilla reference signal, replicate 2 = 2230
CG42245 + MEP-1 [SID104187785] | firefly Hh reporter signal, replicate 1 = 1.17e5; firefly Hh reporter signal, replicate 2 = 2.13e5; Renilla reference signal, replicate 1 = 3592; Renilla reference signal, replicate 2 = 10269
CG42245 + MEP-1 [SID104188066] | firefly Hh reporter signal, replicate 1 = 2.29e5; firefly Hh reporter signal, replicate 2 = 1.68e5; Renilla reference signal, replicate 1 = 8904; Renilla reference signal, replicate 2 = 6944
